According to paper doi:10.1101/2023.11.18.567679 (bioRxiv, 2023):
Results are given in words; binding and its absence hold for the method and conditions named. Some entries that bind do so weakly or less than the wild type.

Assays:
[1] = biological target: Tse15NN (Tse15 D1369N, D1391N), recombinant (Acinetobacter baumannii (strain AB307-0294)); test: cryo-EM structure
[2] = biological target: Tse15NN Rhs-toxin fragment (residues 335-1590, D1369N, D1391N) (Acinetobacter baumannii (strain AB307-0294)); test: cryo-EM structure

Molecule | binding [1] | binding [2]
Tse15NN (Tse15 D1369N, D1391N), recombinant (from UniProt A0A5K6CSR3 1-334; A0A5K6CSR3 335-1590) (complex) | no binding | –
Tse15 N-terminal clade domain (residue 1-334) (domain or fragment, UniProt A0A5K6CSR3 1-334, looked up) MAKENTQQKEIKRQPAVELAVFNLNSVTDVADLQMIASQVQLYLQVCGNTTLEQIKSKANITTVANIFALTGSVLDLMLYATDKKTGDAAVQRGALLAANLIGLFSEPNNEAHARMALRPMFGLMAECLYRENGKIKETDIKRLGLHLNAMIAGDLENFLKETQAKLSSLLISATTLGVTILQSMATPATGINAGITTAAGASAEKRDPKLKFTNWAVPLIDLLGKPSQANLTPKIQPNITSRLQQEATQAIAALSQTLQQQANAGQKYTLAWLLQETLKAIQALENKGNASVPINQTGEYERHTKGDTLEFVSLQADALNAPPCEGADSQSGK | – | binds
